The values below come from article PMC12849997.

Chains of the proteins cited; added tags and fusions are not shown. Residues count along the entry.
UniProt P15941, residues 24-1255: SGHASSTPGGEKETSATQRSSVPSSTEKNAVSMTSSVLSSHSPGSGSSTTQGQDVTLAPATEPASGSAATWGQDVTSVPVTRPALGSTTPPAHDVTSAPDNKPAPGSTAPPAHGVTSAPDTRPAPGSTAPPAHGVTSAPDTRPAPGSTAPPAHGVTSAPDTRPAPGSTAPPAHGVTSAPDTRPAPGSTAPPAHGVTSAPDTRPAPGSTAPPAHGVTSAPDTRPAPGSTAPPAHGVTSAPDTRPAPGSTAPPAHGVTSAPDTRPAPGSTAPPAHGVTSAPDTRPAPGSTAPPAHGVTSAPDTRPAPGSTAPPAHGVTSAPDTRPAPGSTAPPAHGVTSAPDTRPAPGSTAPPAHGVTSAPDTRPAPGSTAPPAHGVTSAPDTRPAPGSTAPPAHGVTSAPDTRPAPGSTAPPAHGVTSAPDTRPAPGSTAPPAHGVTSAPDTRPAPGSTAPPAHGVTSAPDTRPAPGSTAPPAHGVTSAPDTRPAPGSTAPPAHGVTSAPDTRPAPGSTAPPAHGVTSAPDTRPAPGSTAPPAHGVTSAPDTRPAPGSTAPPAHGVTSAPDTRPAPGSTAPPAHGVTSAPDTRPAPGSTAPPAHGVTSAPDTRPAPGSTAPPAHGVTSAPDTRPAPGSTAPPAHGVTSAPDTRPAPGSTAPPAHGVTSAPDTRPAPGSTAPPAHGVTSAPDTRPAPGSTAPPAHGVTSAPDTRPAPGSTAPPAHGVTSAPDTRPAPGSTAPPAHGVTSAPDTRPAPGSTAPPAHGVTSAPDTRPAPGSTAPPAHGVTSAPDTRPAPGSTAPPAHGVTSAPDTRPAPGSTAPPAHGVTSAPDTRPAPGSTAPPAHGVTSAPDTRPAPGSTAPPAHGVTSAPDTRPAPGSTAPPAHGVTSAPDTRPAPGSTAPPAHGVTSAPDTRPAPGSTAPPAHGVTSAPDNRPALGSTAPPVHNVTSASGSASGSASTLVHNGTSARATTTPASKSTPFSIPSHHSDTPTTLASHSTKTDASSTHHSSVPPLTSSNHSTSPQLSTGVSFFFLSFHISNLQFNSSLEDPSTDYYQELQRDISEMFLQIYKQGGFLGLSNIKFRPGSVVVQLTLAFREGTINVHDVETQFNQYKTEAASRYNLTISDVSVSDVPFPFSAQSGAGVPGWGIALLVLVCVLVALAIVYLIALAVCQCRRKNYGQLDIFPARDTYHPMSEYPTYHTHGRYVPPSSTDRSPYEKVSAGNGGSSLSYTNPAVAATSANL

In the assay the target is T1, His‐tagged CDC37 (His‐CDC37) (human) (UniProt Q16543).
T1 sequence: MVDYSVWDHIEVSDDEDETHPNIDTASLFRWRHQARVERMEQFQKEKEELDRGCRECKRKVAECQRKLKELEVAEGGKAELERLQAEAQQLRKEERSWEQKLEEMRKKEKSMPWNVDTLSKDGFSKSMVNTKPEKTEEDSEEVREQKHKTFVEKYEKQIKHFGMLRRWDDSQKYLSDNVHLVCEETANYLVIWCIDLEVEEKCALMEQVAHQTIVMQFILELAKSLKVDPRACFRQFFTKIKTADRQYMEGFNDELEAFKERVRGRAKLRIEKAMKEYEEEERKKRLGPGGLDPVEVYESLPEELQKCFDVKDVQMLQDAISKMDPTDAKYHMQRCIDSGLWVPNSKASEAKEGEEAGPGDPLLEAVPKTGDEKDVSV
In words: affinity purification with mass spectrometry; anti‐His immunoprecipitate of DCs treated with EVs of His‐CDC37‐overexpressing SKBR3 cells and pulsed with tumor lysates; LC-MS/MS.

Results are given in words; binding and its absence hold for the method and conditions named. In cells and extracts the contact can be indirect. These calls come from enrichment with a bait or labelling near it, and not all partners need be listed. Tags and fused reporters may be left off the sequences shown.

Turning to “MUC1 of tumor lysates (from UniProt P15941 24-1255)”, the binding result is “binds”.
